# Assay results from US20180037651A1.
# Protein sequences, listed by entry. Tags and fused reporters are not part of them. Lines headed by an entry give the natural chain unless they say otherwise; changes in a name come on top.
# UniProt Q9JIL6: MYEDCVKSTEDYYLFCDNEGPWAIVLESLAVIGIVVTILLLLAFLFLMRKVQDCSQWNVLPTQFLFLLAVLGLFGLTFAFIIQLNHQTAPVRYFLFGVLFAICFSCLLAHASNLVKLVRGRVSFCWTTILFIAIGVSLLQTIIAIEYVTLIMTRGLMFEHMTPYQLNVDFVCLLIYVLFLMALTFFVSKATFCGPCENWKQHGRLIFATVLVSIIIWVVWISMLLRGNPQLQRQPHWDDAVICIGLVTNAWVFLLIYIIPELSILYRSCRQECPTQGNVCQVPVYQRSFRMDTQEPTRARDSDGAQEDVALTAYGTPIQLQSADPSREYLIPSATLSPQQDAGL
# Results are given in words; binding and its absence hold for the method and conditions named. Some results given as binding are weak or reduced against the parent protein; the word gives no strength.
# Target: murine GPRC5D (murine) (UniProt Q9JIL6)
# Assay: FACS, murine GPRC5D
binder,measurement,value
"GCDB72 (bispecific antibody, IgG4, V domains shown) VH 1: QVQLVQSGAEVKKPGASVKVSCKASGYSFTGYTMNWVRQAPGQGLEWMGLINPYNSDTNYAQKLQGRVTMTTDTSTSTAYMELRSLRSDDTAVYYCARVALRVALDYWGQGTLVTVSS VL 1: DIQMTQSPSSLSASVGDRVTITCKASQNVATHVGWYQQKPGKAPKRLIYSASYRYSGVPSRFSGSGSGTEFTLTISNLQPEDFATYYCQQYNRYPYTFGQGTKLEIK VH 2: EVQLVESGGGLVQPGGSLRLSCAASGFTFNTYAMNWVRQAPGKGLEWVARIRSKYNNYATYYAASVKGRFTISRDDSKNSLYLQMNSLKTEDTAVYYCARHGNFGNSYVSWFAYWGQGTLVTVSS VL 2: QTVVTQEPSLTVSPGGTVTLTCRSSTGAVTTSNYANWVQQKPGQAPRGLIGGTNKRAPGTPARFSGSLLGGKAALTLSGVQPEDEAEYYCALWYSNLWVFGGGTKLTVL",binding,binds
